Results from cells or extracts need not show a direct contact. For some assays here: A weaker result is weaker than the reference pair of the same experiment.
Columns and labels:
[1] = target: estrogen receptor alpha Y537F (ER-Y537F) (Homo sapiens) (UniProt P03372); assay: EMSA; conditions: COS-7 lysate, 100 nM estradiol, 4 C; marked reduction of binding vs wild type; protein in a lysate after overexpression; protein details: expressed from pcDNA3 in COS-7 cells; label: 32P 5'-end (polynucleotide kinase)
[2] = target: estrogen receptor alpha (ER-wt) (Homo sapiens) (UniProt P03372); assay: EMSA; conditions: COS-7 lysate, 100 nM estradiol, 4 C; blocked by 5 uM mY8 peptide; protein in a lysate after overexpression; protein details: expressed from pcDNA3 in COS-7 cells; label: 32P 5'-end (polynucleotide kinase)

Sequences of proteins named here, by UniProt entry; tags and fusion partners are left off.
UniProt P03372, whole entry Y537F: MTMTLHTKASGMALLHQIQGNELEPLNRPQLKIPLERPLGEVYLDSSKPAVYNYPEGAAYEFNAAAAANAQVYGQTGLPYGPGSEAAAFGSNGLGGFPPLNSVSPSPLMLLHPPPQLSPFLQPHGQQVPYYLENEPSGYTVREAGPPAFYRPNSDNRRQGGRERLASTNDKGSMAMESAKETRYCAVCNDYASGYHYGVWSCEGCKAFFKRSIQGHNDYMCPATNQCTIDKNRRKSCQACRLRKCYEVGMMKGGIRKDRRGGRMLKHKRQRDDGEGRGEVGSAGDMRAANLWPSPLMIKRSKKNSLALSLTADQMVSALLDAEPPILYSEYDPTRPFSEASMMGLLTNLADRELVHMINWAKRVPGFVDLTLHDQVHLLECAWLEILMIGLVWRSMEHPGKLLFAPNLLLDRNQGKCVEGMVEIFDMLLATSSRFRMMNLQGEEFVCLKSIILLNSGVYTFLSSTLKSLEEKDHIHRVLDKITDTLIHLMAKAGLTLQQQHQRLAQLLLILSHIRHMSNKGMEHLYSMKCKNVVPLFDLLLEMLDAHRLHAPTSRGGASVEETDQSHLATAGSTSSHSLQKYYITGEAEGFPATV
UniProt P03372, whole entry: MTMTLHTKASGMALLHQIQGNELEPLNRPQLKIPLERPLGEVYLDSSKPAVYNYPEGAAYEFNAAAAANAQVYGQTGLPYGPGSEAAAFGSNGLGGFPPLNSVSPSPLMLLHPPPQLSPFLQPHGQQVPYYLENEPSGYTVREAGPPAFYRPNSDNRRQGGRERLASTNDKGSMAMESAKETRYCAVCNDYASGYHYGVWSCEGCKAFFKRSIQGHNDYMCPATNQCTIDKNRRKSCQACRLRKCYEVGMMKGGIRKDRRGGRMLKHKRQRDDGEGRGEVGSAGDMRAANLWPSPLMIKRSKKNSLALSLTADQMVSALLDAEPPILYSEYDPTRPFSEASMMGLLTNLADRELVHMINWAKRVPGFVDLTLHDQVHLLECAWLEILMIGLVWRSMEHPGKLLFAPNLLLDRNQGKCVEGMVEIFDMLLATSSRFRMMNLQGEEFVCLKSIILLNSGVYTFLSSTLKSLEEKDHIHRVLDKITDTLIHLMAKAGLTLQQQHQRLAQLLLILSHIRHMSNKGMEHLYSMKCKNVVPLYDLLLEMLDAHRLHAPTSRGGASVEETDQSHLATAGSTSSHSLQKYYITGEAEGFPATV

GATCCTAGAGGTCACAGTGACCTACGA (double strand) [vitellogenin A2 ERE 27-bp probe]
binding result [1]: binds more weakly
binding result [2]: binds
